Results reported in US11419834B2, “Methods for treating diseases or infections caused by or associated with H. pylori using a halogenated salicylanilide” (Rhode Island Hospital, priority 2019, dated 2022).
At least one structure is not confirmed: it was looked up by name or label, or the drawing left a doubt.

System: H. pylori (strain 60190)
Test: Checkerboard synergy assay (FICI)
Assay type: cell-based, Helicobacter pylori
Details: combination with niclosamide
Protocol: References to “synergy” of the halogenated salicylanilide with other therapeutic agents described herein refer to an activity which is greater than the sum of the individual agents used alone. The degree of antimicrobial synergy may be assessed by calculating the fractional inhibitory concentration index (FICI) using the checkerboard assay described in the Examples herein. For two agents A and B, the FICI is calculated as: FICI=MICA-B in combination/(MICA alone+MICB alone) Synergy occurs when the FICI is ≤0.5; partial synergy for 0.5≤FICI≤1.0; no interaction […]; and antagonism FICI >4.0.
Antibacterial synergy was tested using the checkerboard assay using the method described in Zheng Z et al. (Antimicrob. Agents Chemother. 2017 July; 61(7)).
Niclosamide was combined with antibiotics and proton pump inhibitors (PPIs). Cultures of H. pylori (strain 60190) were adjusted to OD600=0.06 and added to compound pairs that had been serially diluted in the same 96-well plates, vertically for one compound and horizontally for the other. Assays were carried out in triplicate as described in the antibacterial susceptibility assay described above. […]

Compound	interaction with niclosamide
COc1ccc2[nH]c([S+]([O-])Cc3ncc(C)c(OC)c3C)nc2c1 (centres unmarked) [Omeprazole, omeprazole]	partially synergistic
COc1ccnc(C[S+]([O-])c2nc3ccc(OC(F)F)cc3[nH]2)c1OC (centres unmarked) [Pantoprazole, pantoprazole]	partially synergistic
